SMILES strings stand for the structures.

The subject of the data set is atypical adenosine A2A receptors. Description: Displacement of [3H]CGS21680 binding in rat striatum in the presence of CSC (atypical sites). The note with it: Figure 3, 200 nmol/L CSC. On the technique in general: In a radioligand displacement assay an active substance lowers the binding of a labelled ligand.
For `CCn1c(=O)c2c(nc(/C=C/c3ccc(OC)c(OC)c3)n2C)n(CC)c1=O` [KW6002, (E)-1,3-diethyl-8-(3,4-dimethoxystyryl)-7-methyl-3,7-dihydro-1H-purine-2,6,dione], the “Hill Slope” value is on record as -1.408.

For `CCCCc1nc(N)c2nc(-n3nccn3)n(C)c2n1` [ST1535, 2 butyl-9-methyl-8-(2H-1,2,3-triazol 2-yl)-9H-purin-6-xylamine], the “Hill Slope” value is recorded as -1.045.

For `Nc1nc(NCCc2ccc(O)cc2)nc2nc(-c3ccco3)nn12` [ZM241385], the “Hill Slope” value is -0.6052.

These data come from publication PMC3059644 (Frontiers in Psychiatry, 2010).
